Literature values, collected in patent US20260224761A1, “DUAL LABELLED COMPOUNDS TARGETING THE PROSTATE SPECIFIC MEMBRANE ANTIGEN” (priority 2023, published 2026).

By UniProt entry, the sequences of proteins in these tests, tags left out.
UniProt Q04609, whole entry: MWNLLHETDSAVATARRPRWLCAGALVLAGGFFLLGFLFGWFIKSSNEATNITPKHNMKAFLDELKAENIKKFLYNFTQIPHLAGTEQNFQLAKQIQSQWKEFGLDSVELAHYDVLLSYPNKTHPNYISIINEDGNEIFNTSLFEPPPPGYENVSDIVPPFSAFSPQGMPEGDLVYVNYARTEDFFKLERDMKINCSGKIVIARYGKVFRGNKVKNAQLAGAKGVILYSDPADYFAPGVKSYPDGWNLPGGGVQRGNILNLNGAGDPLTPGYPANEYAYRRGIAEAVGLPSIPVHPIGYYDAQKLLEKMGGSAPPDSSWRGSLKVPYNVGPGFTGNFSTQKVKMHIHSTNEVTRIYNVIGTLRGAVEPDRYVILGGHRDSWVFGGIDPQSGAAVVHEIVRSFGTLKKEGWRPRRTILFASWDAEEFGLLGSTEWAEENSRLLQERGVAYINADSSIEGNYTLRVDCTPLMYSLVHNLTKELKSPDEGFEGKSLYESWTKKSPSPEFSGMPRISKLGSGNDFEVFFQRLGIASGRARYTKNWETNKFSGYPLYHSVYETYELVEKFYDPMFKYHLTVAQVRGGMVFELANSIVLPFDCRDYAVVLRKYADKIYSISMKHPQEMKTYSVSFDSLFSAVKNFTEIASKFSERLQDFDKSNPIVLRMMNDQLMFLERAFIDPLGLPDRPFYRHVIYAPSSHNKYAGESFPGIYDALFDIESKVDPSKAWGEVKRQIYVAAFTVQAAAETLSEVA

Biological target: PSMA (Homo sapiens, UniProt Q04609)
Settings: LNCaP cells; reference compounds, assayed under identical conditions (literature cited in table title); # = free mas3-chelator; cited from earlier work

C[N+]1=C(/C=C/C=C/C=C2/N(CCCCCC(=O)NCCCC[C@@H](NC(=O)CCC(C(=O)O)N3CCN(CC(=O)O)CCN(CC(=O)O)CCN(CC(=O)O)CC3)C(=O)N[C@H](Cc3ccc(O)c(I)c3)C(=O)N[C@H](Cc3ccc(O)c(I)c3)C(=O)N[C@H](CCCCNC(=O)CCCCCCC(=O)NCCCC[C@H](NC(=O)N[C@@H](CCC(=O)O)C(=O)O)C(=O)O)C(=O)O)c3ccc(S(=O)(=O)[O-])cc3C2(C)C)C(C)(C)c2cc(S(=O)(=O)O)ccc21 (single isomer, unassigned)
IC50: 10.5 nM

The structures given here were assigned with low confidence; some may be wrong.
